From PubChem BioAssay (EPA / NIEHS)
Several values for one entry are separate records, joined by “and”; a condition that tells them apart may be missing. Identical values can stand only once. This list was built around the results that the source calls inconclusive (neither active nor inactive); the mix of calls is not that of the screen. Where the call is inconclusive, the potency comes from a doubtful curve fit. Activity calls are given as the source filed them. How the source made its calls: active means hit-call score of the fitted dose curve at least 0.9, where 1 is the maximum; inconclusive means response in the unintended direction; inactive means score below 0.9.

experiment: ACEA_ER_AUC_viability: ACEA Biosciences xCELLigence Real-Time Cell Analysis on Estrogen Receptor Agonism for Viability (AID 2283782);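 further: hit means loss of impedance signal meaning reduced cell growth or viability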
Procedure, shortened: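 Viability endpoint: reduced impedance area under the curve relative to DMSO, recorded by real-time electrode sensing over ~80 h of continuous exposure. Duplicate plates of T47D in hormone-depleted medium; eight concentrations, 1:4 dilutions, 100 uM maximum.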

| SMILES | AC50 | outcome |
| --- | --- | --- |
| CC[N+](CC)(CC)CC | inconclusive: 0.277 µM | – |
| Oc1ccc(-c2ccccc2)cc1 | inconclusive: 10.2 µM | – |
| O=C(Cl)OCCOCCOC(=O)Cl | – | inactive |
| CN=C=S | inconclusive: 0.021 µM | – |
| Nc1ccc(Sc2ccc(N)cc2)cc1 | – | inactive |
| O=P(O)(Oc1ccccc1)Oc1ccccc1 | – | inactive |
| CC(c1ccc(O)cc1)(c1ccc(O)cc1)c1ccc(O)cc1 | active: 88.3 µM | – |
| CCOC(=O)C(C)OC(=O)c1cc(Oc2ccc(C(F)(F)F)cc2Cl)ccc1[N+](=O)[O-] (centres undefined) | inconclusive: 0.0249 µM | – |
| CC(C)CBr | inconclusive: 2.06 µM | – |
| CC(C)(OO)c1ccccc1 | active: 14.7 µM | – |
| COC(N)=O | – | inactive |
| O=C(Cc1ccccc1)c1ccccc1 | inconclusive: 0.0407 µM | – |
| OCC(F)(F)OC(F)(F)C(F)(F)OC(F)(F)C(F)(F)OC(F)(F)F | inconclusive: 0.174 µM | – |
| COCC(=O)N(c1c(C)cccc1C)[C@H](C)C(=O)OC | active: 50 µM | – |
| CCC(C)(C#N)N=NC(C)(C#N)CC (centres undefined) | – | inactive |
| C=CCc1ccc(OC)cc1 | – | inactive |
| CC(C)Nc1ccc(Nc2ccccc2)cc1 | active: 18 µM | – |
| O=S(=O)(F)C(F)(F)C(F)(F)C(F)(F)C(F)(F)C(F)(F)C(F)(F)C(F)(F)C(F)(F)F | – | inactive |
| O=C(O)Cc1ccccc1 | active: 50 µM | – |
| OCc1ccco1 | inconclusive: 0.00192 µM | – |

| SMILES | AC50 | outcome |
| --- | --- | --- |
| CCOP(=S)(OCC)SCS(=O)(=O)CC | – | inactive |
| Oc1ccc(C(c2ccc(O)cc2)(C(F)(F)F)C(F)(F)F)cc1 | active: 83.7 µM and active: 72 µM and active: 73.8 µM | – |
| Cn1sc(Cl)cc1=O | active: 86.9 µM | – |
| Cc1ccccc1[N+](=O)[O-] | – | inactive |
| CCN(CC)C(=O)C(Cl)=C(C)OP(=O)(OC)OC | active: 25.8 µM | – |
| O=C1C2CC=CCC2C(=O)N1SC(Cl)(Cl)Cl (centres undefined) | inconclusive: 49.2 µM | – |
| CO/C=C(/C(=O)OC)c1ccccc1COc1cccc(C(F)(F)F)n1 | inconclusive: 10.9 µM | – |
| O=[N+]([O-])c1cc(Cl)ccc1Cl | inconclusive: 0.187 µM | – |
| CCCCC(CC)COC(=O)Cl (centres undefined) | – | inactive |
| C=CC(=O)NC(C)(C)CC(C)=O | – | inactive |
| [As]#[In] | inconclusive: 50 µM | – |
| CCCCc1ccccc1 | inconclusive: 50 µM | – |
| CCCCN(CC)C(=O)SCCC | inconclusive: 50 µM | – |
| CN(C)CCO | inconclusive: 50 µM | – |
| O=C(NC(=O)c1cc(F)c(F)cc1Cl)Nc1cc(F)ccc1N1CCC(C(=O)O)CC1 | – | inactive |
| CCCCCCCCCCCCCN1CC(C)OC(C)C1 (centres undefined) | inconclusive: 50 µM | – |
| Cn1cc(-c2ccccc2)c(=O)c(-c2cccc(C(F)(F)F)c2)c1 | inconclusive: 50 µM | – |
| CCC[CH2][Sn]([CH2]CCC)([CH2]CCC)[CH2]CCC | active: 22 µM | – |
| CCCCCCCCCC[N+](C)(C)CCCCCCCCCC | active: 5.4 µM | – |
